The values below come from publication PMC4647846.

Amino acid sequences for entries named in this document (tags omitted). Residues count along the entry.
UniProt Q9Y6U3, residues 1-365: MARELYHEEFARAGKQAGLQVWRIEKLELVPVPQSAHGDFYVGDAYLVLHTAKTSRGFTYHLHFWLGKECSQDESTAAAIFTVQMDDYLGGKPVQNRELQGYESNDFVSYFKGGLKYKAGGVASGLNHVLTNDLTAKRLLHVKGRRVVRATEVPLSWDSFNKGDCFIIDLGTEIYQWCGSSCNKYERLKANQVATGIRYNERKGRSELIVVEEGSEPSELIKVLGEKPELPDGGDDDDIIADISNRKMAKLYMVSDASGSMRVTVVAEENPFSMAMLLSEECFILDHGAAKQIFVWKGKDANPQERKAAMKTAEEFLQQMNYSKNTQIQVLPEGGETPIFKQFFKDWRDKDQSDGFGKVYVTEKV

These are yes or no findings as the source states them, for the method shown.

This test deals with N-terminal half of adseverin (A1–A3, residues 1–365) (UniProt Q9Y6U3). Nature of the test: SAXS; A1–A3 at 1, 2, 4 and 8 mg/ml in 20 mM Tris-HCl pH 7.2, 150 mM NaCl, with 2 or 10 mM EGTA or free Ca2+ from 19 nM to 50 mM, 20 °C; molecular weight estimated from scattering; both purified.

“N-terminal half of adseverin (A1–A3, residues 1–365) (from UniProt Q9Y6U3 1-365) (domain or fragment)”: the binding result is reported as “no binding (tested: 8 mg ml^−1)”.
